# Laboratory results reported in the supplement of paper PMC8728848.
# This is one part of the list.
# B1: AntigenI/IIC123 (Streptococcus mutans), C9E3B4 (protein)
# chain: MASMTGGQQMGRIHFHYFKLAVQPQVNKEIRNNNDINIDRTLVAKQSVVKFQLKTADLPAGRDETTSFVLVDPLPSGYQFNPEATKAASPGFDVTYDNATNTVTFKATAATLATFNADLTKSVATIYPTVVGQVLNDGATYKNNFTLTVNDAYGIKSNVVRVTTPGKPNDPDNPNNNYIKPTKVNKNENGVVIDGKTVLAGSTNYYELTWDLDQYKNDRSSADTIQKGFYYVDDYPEEALELRQDLVKITDANGNEVTGVSVDNYTNLEAAPQEIRDVLSKAGIRPKGAFQIFRADNPREFYDTYVKTGIDLKIVSPMVVKKQMGQTGGSYENQAYQIDFGNGYASNIIINNVPKINPKKDVTLTLDPADTNNVDGQTIPLNTVFNYRLIGGIIPADHSEELFEYNFYDDYDQTGDHYTGQYKVFAKVDITFKDGSIIKSGAELTQYTTAEVDTAKGAITIKFKEAFLRSVSIDSAFQAESYIQMKRIAVGTFENTYINTVNGVTYSSLEHHHHHH
# What was measured:
# Test in all cases: glycan array binding signal (z-score within array); higher = stronger binding
# Conditions in all cases: glycan notation: IUPAC condensed, linker removed
# [1] = molecular target: Gal(b1-4)GlcNAc(b1-2)[Gal(b1-4)GlcNAc(b1-6)]Man(a1-6)[GlcNAc(b1-4)][Gal(b1-4)GlcNAc(b1-2)Man(a1-3)]Man(b1-4)GlcNAc(b1-4)GlcNAc
# Outline: (§1)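 The binding signal is a Z-score computed within each array. Data were drawn from 3228 arrays in the Consortium for Functional Glycomics database, restricted to those with a known protein sequence. Scores were averaged over arrays of the same protein sequence at different concentrations or buffers, and over linkers, and negative values can be taken as non-binding.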
# [2] = molecular target: Gal(b1-4)GlcNAc(b1-2)[Gal(b1-4)GlcNAc(b1-6)]Man(a1-6)[GlcNAc(b1-4)][Gal(b1-4)GlcNAc(b1-2)[Gal(b1-4)GlcNAc(b1-4)]Man(a1-3)]Man(b1-4)GlcNAc(b1-4)[Fuc(a1-6)]GlcNAc
# Outline: as §1
# [3] = molecular target: Gal(b1-4)GlcNAc(b1-3)Gal(b1-3)GalNAc
# Outline: as §1
# [4] = molecular target: Gal(b1-4)GlcNAc(b1-3)Gal(b1-3)GlcNAc
# Outline: as §1
# [5] = molecular target: Gal(b1-4)GlcNAc(b1-3)Gal(b1-4)Glc
# Outline: as §1
# [6] = molecular target: Gal(b1-4)GlcNAc(b1-3)Gal(b1-4)GlcNAc
# Outline: as §1
# [7] = molecular target: Gal(b1-4)GlcNAc(b1-3)Gal(b1-4)GlcNAc(b1-2)Man(a1-3)[Gal(b1-4)GlcNAc(b1-3)Gal(b1-4)GlcNAc(b1-2)Man(a1-6)]Man(b1-4)GlcNAc(b1-4)GlcNAc
# Outline: as §1
# [8] = molecular target: Gal(b1-4)GlcNAc(b1-3)Gal(b1-4)GlcNAc(b1-2)Man(a1-3)[Gal(b1-4)GlcNAc(b1-3)Gal(b1-4)GlcNAc(b1-2)Man(a1-6)]Man(b1-4)GlcNAc(b1-4)[Fuc(a1-6)]GlcNAc
# Outline: as §1
# [9] = molecular target: Gal(b1-4)GlcNAc(b1-3)Gal(b1-4)GlcNAc(b1-2)[Gal(b1-4)GlcNAc(b1-3)Gal(b1-4)GlcNAc(b1-6)]Man(a1-6)[Gal(b1-4)GlcNAc(b1-3)Gal(b1-4)GlcNAc(b1-2)Man(a1-3)]Man(b1-4)GlcNAc(b1-4)GlcNAc
# Outline: as §1
# [10] = molecular target: Gal(b1-4)GlcNAc(b1-3)Gal(b1-4)GlcNAc(b1-2)[Gal(b1-4)GlcNAc(b1-3)Gal(b1-4)GlcNAc(b1-6)]Man(a1-6)[Gal(b1-4)GlcNAc(b1-3)Gal(b1-4)GlcNAc(b1-2)Man(a1-3)]Man(b1-4)GlcNAc(b1-4)[Fuc(a1-6)]GlcNAc
# Outline: as §1
# [11] = molecular target: Gal(b1-4)GlcNAc(b1-3)Gal(b1-4)GlcNAc(b1-3)Gal(b1-4)GlcNAc
# Outline: as §1
# [12] = molecular target: Gal(b1-4)GlcNAc(b1-3)Gal(b1-4)GlcNAc(b1-3)Gal(b1-4)GlcNAc(b1-2)Man(a1-3)[Gal(b1-4)GlcNAc(b1-3)Gal(b1-4)GlcNAc(b1-3)Gal(b1-4)GlcNAc(b1-2)Man(a1-6)]Man(b1-4)GlcNAc(b1-4)GlcNAc
# Outline: as §1
# [13] = molecular target: Gal(b1-4)GlcNAc(b1-3)Gal(b1-4)GlcNAc(b1-3)Gal(b1-4)GlcNAc(b1-2)Man(a1-3)[Gal(b1-4)GlcNAc(b1-3)Gal(b1-4)GlcNAc(b1-3)Gal(b1-4)GlcNAc(b1-2)Man(a1-6)]Man(b1-4)GlcNAc(b1-4)[Fuc(a1-6)]GlcNAc
# Outline: as §1
# [14] = molecular target: Gal(b1-4)GlcNAc(b1-3)Gal(b1-4)GlcNAc(b1-3)Gal(b1-4)GlcNAc(b1-2)[Gal(b1-4)GlcNAc(b1-3)Gal(b1-4)GlcNAc(b1-3)Gal(b1-4)GlcNAc(b1-6)]Man(a1-6)[Gal(b1-4)GlcNAc(b1-3)Gal(b1-4)GlcNAc(b1-3)Gal(b1-4)GlcNAc(b1-2)Man(a1-3)]Man(b1-4)GlcNAc(b1-4)[Fuc(a1-6)]GlcNAc
# Outline: as §1
# [15] = molecular target: Gal(b1-4)GlcNAc(b1-3)Gal(b1-4)GlcNAc(b1-3)Gal(b1-4)GlcNAc(b1-3)Gal(b1-4)GlcNAc(b1-2)Man(a1-3)[Gal(b1-4)GlcNAc(b1-3)Gal(b1-4)GlcNAc(b1-3)Gal(b1-4)GlcNAc(b1-3)Gal(b1-4)GlcNAc(b1-2)Man(a1-6)]Man(b1-4)GlcNAc(b1-4)GlcNAc
# Outline: as §1
# [16] = molecular target: Gal(b1-4)GlcNAc(b1-3)Gal(b1-4)GlcNAc(b1-3)Gal(b1-4)GlcNAc(b1-3)Gal(b1-4)GlcNAc(b1-2)Man(a1-3)[Gal(b1-4)GlcNAc(b1-3)Gal(b1-4)GlcNAc(b1-3)Gal(b1-4)GlcNAc(b1-3)Gal(b1-4)GlcNAc(b1-2)Man(a1-6)]Man(b1-4)GlcNAc(b1-4)[Fuc(a1-6)]GlcNAc
# Outline: as §1
# [17] = molecular target: Gal(b1-4)GlcNAc(b1-3)Gal(b1-4)GlcNAc(b1-3)Gal(b1-4)GlcNAc(b1-3)Gal(b1-4)GlcNAc(b1-2)[Gal(b1-4)GlcNAc(b1-3)Gal(b1-4)GlcNAc(b1-3)Gal(b1-4)GlcNAc(b1-3)Gal(b1-4)GlcNAc(b1-6)]Man(a1-6)[Gal(b1-4)GlcNAc(b1-3)Gal(b1-4)GlcNAc(b1-3)Gal(b1-4)GlcNAc(b1-3)Gal(b1-4)GlcNAc(b1-2)Man(a1-3)]Man(b1-4)GlcNAc(b1-4)[Fuc(a1-6)]GlcNAc
# Outline: as §1
# [18] = molecular target: Gal(b1-4)GlcNAc(b1-3)Gal(b1-4)GlcNAc(b1-3)Gal(b1-4)GlcNAc(b1-3)Gal(b1-4)GlcNAc(b1-3)Gal(b1-4)GlcNAc(b1-2)Man(a1-3)[Gal(b1-4)GlcNAc(b1-3)Gal(b1-4)GlcNAc(b1-3)Gal(b1-4)GlcNAc(b1-3)Gal(b1-4)GlcNAc(b1-3)Gal(b1-4)GlcNAc(b1-2)Man(a1-6)]Man(b1-4)GlcNAc(b1-4)GlcNAc
# Outline: as §1
# [19] = molecular target: Gal(b1-4)GlcNAc(b1-3)Gal(b1-4)GlcNAc(b1-3)Gal(b1-4)GlcNAc(b1-3)Gal(b1-4)GlcNAc(b1-3)Gal(b1-4)GlcNAc(b1-2)Man(a1-3)[Gal(b1-4)GlcNAc(b1-3)Gal(b1-4)GlcNAc(b1-3)Gal(b1-4)GlcNAc(b1-3)Gal(b1-4)GlcNAc(b1-3)Gal(b1-4)GlcNAc(b1-2)Man(a1-6)]Man(b1-4)GlcNAc(b1-4)[Fuc(a1-6)]GlcNAc
# Outline: as §1
# [20] = molecular target: Gal(b1-4)GlcNAc(b1-3)Gal(b1-4)GlcNAc(b1-3)Gal(b1-4)GlcNAc(b1-3)Gal(b1-4)GlcNAc(b1-3)Gal(b1-4)GlcNAc(b1-2)[Gal(b1-4)GlcNAc(b1-3)Gal(b1-4)GlcNAc(b1-3)Gal(b1-4)GlcNAc(b1-3)Gal(b1-4)GlcNAc(b1-3)Gal(b1-4)GlcNAc(b1-6)]Man(a1-6)[Gal(b1-4)GlcNAc(b1-3)Gal(b1-4)GlcNAc(b1-3)Gal(b1-4)GlcNAc(b1-3)Gal(b1-4)GlcNAc(b1-3)Gal(b1-4)GlcNAc(b1-2)Man(a1-3)]Man(b1-4)GlcNAc(b1-4)[Fuc(a1-6)]GlcNAc
# Outline: as §1
# [21] = molecular target: Gal(b1-4)GlcNAc(b1-3)Gal(b1-4)GlcNAc(b1-3)Gal(b1-4)GlcNAc(b1-3)Gal(b1-4)GlcNAc(b1-3)Gal(b1-4)GlcNAc(b1-3)Gal(b1-4)GlcNAc(b1-2)Man(a1-3)[Gal(b1-4)GlcNAc(b1-3)Gal(b1-4)GlcNAc(b1-3)Gal(b1-4)GlcNAc(b1-3)Gal(b1-4)GlcNAc(b1-3)Gal(b1-4)GlcNAc(b1-3)Gal(b1-4)GlcNAc(b1-2)Man(a1-6)]Man(b1-4)GlcNAc(b1-4)GlcNAc
# Outline: as §1
# [22] = molecular target: Gal(b1-4)GlcNAc(b1-3)Gal(b1-4)GlcNAc(b1-3)GalNAc
# Outline: as §1
# [23] = molecular target: Gal(b1-4)GlcNAc(b1-3)Gal(b1-4)GlcNAc(b1-3)[Gal(b1-4)GlcNAc(b1-3)Gal(b1-4)GlcNAc(b1-6)]GalNAc
# Outline: as §1
# [24] = molecular target: Gal(b1-4)GlcNAc(b1-3)Gal(b1-4)GlcNAc(b1-6)[Gal(b1-3)]GalNAc
# Outline: as §1
# [25] = molecular target: Gal(b1-4)GlcNAc(b1-3)Gal(b1-4)[Fuc(a1-3)]GlcNAc(b1-3)Gal(b1-4)[Fuc(a1-3)]GlcNAc
# Outline: as §1
# [26] = molecular target: Gal(b1-4)GlcNAc(b1-3)GalNAc
# Outline: as §1
# [27] = molecular target: Gal(b1-4)GlcNAc(b1-3)[Fuc(a1-3)GlcNAc(b1-6)]Gal(b1-4)Glc
# Outline: as §1
# [28] = molecular target: Gal(b1-4)GlcNAc(b1-3)[Gal(b1-4)GlcNAc(b1-6)]Gal(b1-4)GlcNAc
# Outline: as §1
# [29] = molecular target: Gal(b1-4)GlcNAc(b1-3)[GlcNAc(b1-6)]Gal(b1-4)GlcNAc
# Outline: as §1
# [30] = molecular target: Gal(b1-4)GlcNAc(b1-6)Gal(b1-4)GlcNAc
# Outline: as §1
# [31] = molecular target: Gal(b1-4)GlcNAc(b1-6)GalNAc
# Outline: as §1
# [32] = molecular target: Gal(b1-4)GlcNAc(b1-6)[Gal(b1-3)]GalNAc
# Outline: as §1
# [33] = molecular target: Gal(b1-4)GlcNAc(b1-6)[Gal(b1-4)GlcNAc(b1-3)]GalNAc
# Outline: as §1
# Gal(b1-4)GlcNAc6P = molecular target: Gal(b1-4)GlcNAc6P
# Outline: as §1
# Gal(b1-6)Gal = molecular target: Gal(b1-6)Gal
# Outline: as §1
# Gal3S(b1-3)GalNAc = molecular target: Gal3S(b1-3)GalNAc
# Outline: as §1
# Gal3S(b1-3)GlcNAc = molecular target: Gal3S(b1-3)GlcNAc
# Outline: as §1
# [34] = molecular target: Gal3S(b1-3)[Fuc(a1-4)]GlcNAc
# Outline: as §1
binder,measurement,setting,value
B1,glycan array binding signal (z-score),[1],1.65
same,glycan array binding signal (z-score),[2],0.09
same,glycan array binding signal (z-score),[3],0.003
same,glycan array binding signal (z-score),[4],-0.666
same,glycan array binding signal (z-score),[5],-0.644
same,glycan array binding signal (z-score),[6],-0.529
same,glycan array binding signal (z-score),[7],0.498
same,glycan array binding signal (z-score),[8],1.21
same,glycan array binding signal (z-score),[9],1.01
same,glycan array binding signal (z-score),[10],4.84
same,glycan array binding signal (z-score),[11],-0.417
same,glycan array binding signal (z-score),[12],2.33
same,glycan array binding signal (z-score),[13],3.9
same,glycan array binding signal (z-score),[14],3.08
same,glycan array binding signal (z-score),[15],0.859
same,glycan array binding signal (z-score),[16],2.83
same,glycan array binding signal (z-score),[17],2.31
same,glycan array binding signal (z-score),[18],0.725
same,glycan array binding signal (z-score),[19],0.176
same,glycan array binding signal (z-score),[20],4.43
same,glycan array binding signal (z-score),[21],0.577
same,glycan array binding signal (z-score),[22],-0.676
same,glycan array binding signal (z-score),[23],-0.036
same,glycan array binding signal (z-score),[24],-0.271
same,glycan array binding signal (z-score),[25],-0.431
same,glycan array binding signal (z-score),[26],-0.982
same,glycan array binding signal (z-score),[27],-1.07
same,glycan array binding signal (z-score),[28],-0.642
same,glycan array binding signal (z-score),[29],-0.644
same,glycan array binding signal (z-score),[30],0.798
same,glycan array binding signal (z-score),[31],0.962
same,glycan array binding signal (z-score),[32],-0.39
same,glycan array binding signal (z-score),[33],-0.426
same,glycan array binding signal (z-score),Gal(b1-4)GlcNAc6P,-0.135
same,glycan array binding signal (z-score),Gal(b1-6)Gal,0.178
same,glycan array binding signal (z-score),Gal3S(b1-3)GalNAc,-0.353
same,glycan array binding signal (z-score),Gal3S(b1-3)GlcNAc,-0.283
same,glycan array binding signal (z-score),[34],0.191

# 2 entries from above, with tabs:
binder	measurement	setting	value
B1	glycan array binding signal (z-score)	[29]	-0.644
same	glycan array binding signal (z-score)	[34]	0.191
